The results in this text go back to US20200030355A1, “COMBINATION THERAPY FOR TREATING CANCER” (Epizyme, Inc., priority 2014, published 2020).

One assay has as its system MV4-11 (MLL-AF4). In words: Combination proliferation study with Compound A2 (ATP/CellTiter-Glo, Chou-Talalay combination index). The format is cell-based, human. As to conditions: 7 Day Cotreatment Model, Table 4. The method, then: (§1) The acute myelogenous leukemia cell lines MV4-11 (MLL-AF4) and MOLM-13 (MLL-AF9) were obtained from American Type Culture Collection (ATCC; Rockville, Md.) and Deutsche Sammlung von Mikroorganismen and Zellkulturen (DSMZ; Braunschweig, Germany) respectively.
(§2) Studies were performed using MLL-rearranged cell lines in vitro to evaluate the anti-proliferative effect of a combination of two agents together on cell growth. Initial proliferation studies were performed to determine the IC50 of a given compound in each cell line. The cell counts were measured by ATP quantitation using the Promega Cell Titer Glo kit and luminescence values corresponded to the amount of ATP in a given well.
(§3) Compounds were evaluated for synergy in the co-treatment phase by testing the compounds in a concentration range which was bracketed around their IC50 values. […]
(§4) The drug combination analysis was performed utilizing the Chou-Talalay method Synergy was determined using the software package Calcusyn by Biosoft. The combination index (CI) is a quantitative term used to describe the level of synergy or antagonism in a given test system. […]
(§5) Graphs representing values of combination index (CI) versus Fractional effect (Fa) known as Fa-CI plots were generated and synergy was evaluated. […]
Viability was determined using CellTiter-Glo® (Promega). […]
Background: In ATP-based viability assays light output follows the ATP content of the culture.

Another assay deals with MOLM-13 (MLL-AF9). The description is as above. The following applies: 7 Day Cotreatment Model, Table 4. The class given is cell-based, human. The method, then: as §1, §2, §3, §4, §5
Cell viability was measured via ATP content using CellTiter-Glo® (Promega). […]

The structures appear in SMILES notation.

In the case of `O=C1OCCN1/N=C/c1ccc([N+](=O)[O-])o1` [Furazolidone], the “Combination with Compound A2, MV4-11 (MLL-AF4)” value with MV4-11 (MLL-AF4) was “Synergy (Drug synergy was statistically defined by CI values less than 1)”. Also, the “Combination with Compound A2, MOLM-13 (MLL-AF9)” value with MOLM-13 (MLL-AF9) was “Combination Benefit”.
